The list shows a part of the results.
Experiments:
Assay in all cases: log2 fold change, soluble protein after heating vs DMSO (PISA); higher = thermal stabilisation; K562 lysate, 10 uM; active = over 0.2 and 3.5 SD of the protein, either way, in both replicates (recomputed)
erlotinib = compound: C#Cc1cccc(Nc2ncnc3cc(OCCOC)c(OCCOC)cc23)c1 [erlotinib]
Procedure, shortened: (§1)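 K562 pellets were dounce-homogenised in PBS pH 7.4 containing 1 mM MgCl2, and the crude extract, at 1 mg/mL protein, was exposed to 10 μM compound for 30 min. Aliquots were heated for 3 min across 48°C-58°C, pooled, brought to 0.5% NP-40 at 4°C and spun at 21,000xg for 90 min, with the supernatant taken as soluble protein. TMTpro 16plex LC-MS/MS with equalised channel sums quantified that protein. Values are log-two fold changes in thermal stability relative to solvent controls, taken from duplicates.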

The chains behind the UniProt entries cited, without tags or fusion partners. Where a name states a change or a piece, a line headed by the entry shows the natural chain unless it says otherwise.
UniProt Q9BPZ3: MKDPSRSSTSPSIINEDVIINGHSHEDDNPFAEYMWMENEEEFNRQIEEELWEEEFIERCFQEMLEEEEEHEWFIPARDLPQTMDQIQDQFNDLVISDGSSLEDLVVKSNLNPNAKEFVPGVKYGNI
UniProt Q9BTK6, whole entry, looked up: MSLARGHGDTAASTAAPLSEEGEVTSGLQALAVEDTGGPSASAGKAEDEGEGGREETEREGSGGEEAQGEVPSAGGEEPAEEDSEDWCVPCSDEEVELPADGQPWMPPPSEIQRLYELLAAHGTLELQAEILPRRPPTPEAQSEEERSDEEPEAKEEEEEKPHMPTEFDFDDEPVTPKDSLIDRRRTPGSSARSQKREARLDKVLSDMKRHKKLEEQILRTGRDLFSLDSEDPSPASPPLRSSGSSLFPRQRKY
UniProt Q8N573: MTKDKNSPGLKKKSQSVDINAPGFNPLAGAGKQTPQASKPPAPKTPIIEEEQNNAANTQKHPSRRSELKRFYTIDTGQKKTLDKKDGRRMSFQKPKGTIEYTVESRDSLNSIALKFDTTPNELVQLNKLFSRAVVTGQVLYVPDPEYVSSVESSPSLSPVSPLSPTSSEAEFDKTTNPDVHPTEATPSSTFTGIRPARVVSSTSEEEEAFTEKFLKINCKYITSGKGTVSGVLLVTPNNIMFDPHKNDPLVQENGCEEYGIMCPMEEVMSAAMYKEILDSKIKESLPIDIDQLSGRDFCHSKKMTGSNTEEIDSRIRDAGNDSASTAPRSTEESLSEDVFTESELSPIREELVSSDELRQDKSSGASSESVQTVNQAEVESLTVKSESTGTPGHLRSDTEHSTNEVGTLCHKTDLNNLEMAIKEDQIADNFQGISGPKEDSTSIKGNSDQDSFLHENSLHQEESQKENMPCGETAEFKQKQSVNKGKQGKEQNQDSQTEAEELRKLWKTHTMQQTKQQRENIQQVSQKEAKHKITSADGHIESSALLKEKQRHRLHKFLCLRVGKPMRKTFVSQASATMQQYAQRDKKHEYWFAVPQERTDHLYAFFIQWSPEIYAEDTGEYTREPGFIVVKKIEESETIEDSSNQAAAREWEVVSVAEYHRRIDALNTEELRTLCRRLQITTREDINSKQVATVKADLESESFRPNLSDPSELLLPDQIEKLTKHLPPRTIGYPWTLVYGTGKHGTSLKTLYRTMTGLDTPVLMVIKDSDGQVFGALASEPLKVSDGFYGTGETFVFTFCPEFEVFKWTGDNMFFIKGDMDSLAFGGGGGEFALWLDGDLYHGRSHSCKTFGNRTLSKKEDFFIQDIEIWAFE
UniProt O75781: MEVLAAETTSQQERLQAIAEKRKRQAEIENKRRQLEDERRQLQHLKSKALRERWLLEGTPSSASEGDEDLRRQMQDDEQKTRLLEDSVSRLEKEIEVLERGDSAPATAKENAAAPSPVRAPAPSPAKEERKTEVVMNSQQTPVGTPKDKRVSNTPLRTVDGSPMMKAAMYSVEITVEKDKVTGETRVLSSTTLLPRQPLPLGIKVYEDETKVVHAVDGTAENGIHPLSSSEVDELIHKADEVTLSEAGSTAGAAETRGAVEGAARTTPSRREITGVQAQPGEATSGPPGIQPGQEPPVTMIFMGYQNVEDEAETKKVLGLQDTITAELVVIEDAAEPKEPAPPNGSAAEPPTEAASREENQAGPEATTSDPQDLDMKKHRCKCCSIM
UniProt P37198: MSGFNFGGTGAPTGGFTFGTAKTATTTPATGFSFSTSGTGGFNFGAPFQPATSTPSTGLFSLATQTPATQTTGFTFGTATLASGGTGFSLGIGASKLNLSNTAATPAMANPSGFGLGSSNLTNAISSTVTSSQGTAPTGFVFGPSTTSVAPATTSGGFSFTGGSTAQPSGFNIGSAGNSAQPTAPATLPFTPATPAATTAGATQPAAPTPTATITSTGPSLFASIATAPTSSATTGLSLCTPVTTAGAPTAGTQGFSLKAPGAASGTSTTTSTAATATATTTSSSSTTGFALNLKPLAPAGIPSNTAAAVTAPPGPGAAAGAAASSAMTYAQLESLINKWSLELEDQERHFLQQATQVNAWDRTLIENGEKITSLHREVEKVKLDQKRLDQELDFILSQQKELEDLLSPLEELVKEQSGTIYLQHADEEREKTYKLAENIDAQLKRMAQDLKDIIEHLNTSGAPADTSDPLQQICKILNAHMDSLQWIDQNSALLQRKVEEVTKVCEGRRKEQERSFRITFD
UniProt Q6N063: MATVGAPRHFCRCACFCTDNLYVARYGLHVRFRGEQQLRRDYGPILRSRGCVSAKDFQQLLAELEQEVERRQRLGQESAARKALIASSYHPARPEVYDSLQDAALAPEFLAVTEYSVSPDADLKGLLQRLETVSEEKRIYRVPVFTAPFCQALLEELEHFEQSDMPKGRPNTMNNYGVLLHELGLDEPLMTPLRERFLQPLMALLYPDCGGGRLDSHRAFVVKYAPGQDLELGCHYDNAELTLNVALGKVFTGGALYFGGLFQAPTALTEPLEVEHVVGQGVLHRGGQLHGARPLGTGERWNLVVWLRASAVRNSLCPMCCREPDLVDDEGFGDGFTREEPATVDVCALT
UniProt Q96RD7, whole entry, looked up: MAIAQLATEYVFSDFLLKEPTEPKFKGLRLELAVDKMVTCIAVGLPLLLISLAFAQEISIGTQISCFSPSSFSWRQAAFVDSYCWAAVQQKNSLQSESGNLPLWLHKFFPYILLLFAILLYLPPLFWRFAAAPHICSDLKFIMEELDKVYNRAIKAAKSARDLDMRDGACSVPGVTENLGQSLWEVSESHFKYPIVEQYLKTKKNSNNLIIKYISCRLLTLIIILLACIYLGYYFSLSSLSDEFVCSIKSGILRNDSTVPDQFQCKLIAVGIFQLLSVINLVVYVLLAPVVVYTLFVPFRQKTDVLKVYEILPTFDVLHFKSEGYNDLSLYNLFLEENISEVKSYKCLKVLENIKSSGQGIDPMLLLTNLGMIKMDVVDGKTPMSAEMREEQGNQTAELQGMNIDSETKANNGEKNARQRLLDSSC
UniProt Q9NP74: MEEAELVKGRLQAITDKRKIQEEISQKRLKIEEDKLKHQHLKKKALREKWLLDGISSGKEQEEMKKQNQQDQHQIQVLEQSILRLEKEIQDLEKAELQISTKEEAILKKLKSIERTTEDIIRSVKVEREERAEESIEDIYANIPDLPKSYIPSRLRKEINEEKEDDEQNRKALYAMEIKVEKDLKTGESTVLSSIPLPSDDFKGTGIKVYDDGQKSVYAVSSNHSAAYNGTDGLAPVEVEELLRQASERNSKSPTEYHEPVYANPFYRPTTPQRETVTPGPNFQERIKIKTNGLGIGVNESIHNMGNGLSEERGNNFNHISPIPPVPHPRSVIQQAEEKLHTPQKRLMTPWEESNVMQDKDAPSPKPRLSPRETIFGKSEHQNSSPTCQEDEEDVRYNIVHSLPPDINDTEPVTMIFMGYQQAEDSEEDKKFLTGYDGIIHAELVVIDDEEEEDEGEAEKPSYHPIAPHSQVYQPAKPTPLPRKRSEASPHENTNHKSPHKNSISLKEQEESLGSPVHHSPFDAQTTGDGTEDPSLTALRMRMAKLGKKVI
UniProt O95747, whole entry, looked up: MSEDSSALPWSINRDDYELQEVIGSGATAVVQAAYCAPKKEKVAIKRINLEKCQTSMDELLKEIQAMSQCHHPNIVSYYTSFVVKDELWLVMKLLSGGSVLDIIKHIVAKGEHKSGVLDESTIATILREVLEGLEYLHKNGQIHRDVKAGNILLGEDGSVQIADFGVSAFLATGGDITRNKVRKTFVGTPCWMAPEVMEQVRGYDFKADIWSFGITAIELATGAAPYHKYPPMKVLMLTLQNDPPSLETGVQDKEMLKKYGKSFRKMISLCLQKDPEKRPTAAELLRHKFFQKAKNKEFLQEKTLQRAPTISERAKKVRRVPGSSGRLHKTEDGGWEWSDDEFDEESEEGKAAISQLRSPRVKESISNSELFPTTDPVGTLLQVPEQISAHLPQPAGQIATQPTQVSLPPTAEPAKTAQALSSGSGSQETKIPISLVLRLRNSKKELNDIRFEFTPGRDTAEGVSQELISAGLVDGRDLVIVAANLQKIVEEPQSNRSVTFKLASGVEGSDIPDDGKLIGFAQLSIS
UniProt Q9BWT3: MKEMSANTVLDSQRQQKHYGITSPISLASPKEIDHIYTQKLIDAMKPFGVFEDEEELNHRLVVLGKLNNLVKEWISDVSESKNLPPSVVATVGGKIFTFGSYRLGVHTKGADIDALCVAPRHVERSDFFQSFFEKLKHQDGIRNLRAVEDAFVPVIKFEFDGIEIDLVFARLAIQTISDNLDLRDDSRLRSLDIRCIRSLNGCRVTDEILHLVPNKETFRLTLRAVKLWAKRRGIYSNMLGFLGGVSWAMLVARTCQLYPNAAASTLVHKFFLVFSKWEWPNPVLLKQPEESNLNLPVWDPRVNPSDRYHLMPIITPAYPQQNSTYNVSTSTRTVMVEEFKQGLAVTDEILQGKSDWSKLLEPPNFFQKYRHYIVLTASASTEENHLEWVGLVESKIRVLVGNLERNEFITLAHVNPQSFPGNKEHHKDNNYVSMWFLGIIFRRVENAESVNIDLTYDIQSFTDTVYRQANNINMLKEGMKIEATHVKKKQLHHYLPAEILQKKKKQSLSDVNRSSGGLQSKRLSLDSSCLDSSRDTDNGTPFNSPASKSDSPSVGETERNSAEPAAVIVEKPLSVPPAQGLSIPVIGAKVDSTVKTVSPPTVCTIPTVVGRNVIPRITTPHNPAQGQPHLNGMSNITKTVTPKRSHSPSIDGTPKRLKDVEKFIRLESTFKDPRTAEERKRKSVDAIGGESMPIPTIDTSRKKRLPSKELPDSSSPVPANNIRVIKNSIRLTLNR
UniProt Q6VY07, whole entry, looked up: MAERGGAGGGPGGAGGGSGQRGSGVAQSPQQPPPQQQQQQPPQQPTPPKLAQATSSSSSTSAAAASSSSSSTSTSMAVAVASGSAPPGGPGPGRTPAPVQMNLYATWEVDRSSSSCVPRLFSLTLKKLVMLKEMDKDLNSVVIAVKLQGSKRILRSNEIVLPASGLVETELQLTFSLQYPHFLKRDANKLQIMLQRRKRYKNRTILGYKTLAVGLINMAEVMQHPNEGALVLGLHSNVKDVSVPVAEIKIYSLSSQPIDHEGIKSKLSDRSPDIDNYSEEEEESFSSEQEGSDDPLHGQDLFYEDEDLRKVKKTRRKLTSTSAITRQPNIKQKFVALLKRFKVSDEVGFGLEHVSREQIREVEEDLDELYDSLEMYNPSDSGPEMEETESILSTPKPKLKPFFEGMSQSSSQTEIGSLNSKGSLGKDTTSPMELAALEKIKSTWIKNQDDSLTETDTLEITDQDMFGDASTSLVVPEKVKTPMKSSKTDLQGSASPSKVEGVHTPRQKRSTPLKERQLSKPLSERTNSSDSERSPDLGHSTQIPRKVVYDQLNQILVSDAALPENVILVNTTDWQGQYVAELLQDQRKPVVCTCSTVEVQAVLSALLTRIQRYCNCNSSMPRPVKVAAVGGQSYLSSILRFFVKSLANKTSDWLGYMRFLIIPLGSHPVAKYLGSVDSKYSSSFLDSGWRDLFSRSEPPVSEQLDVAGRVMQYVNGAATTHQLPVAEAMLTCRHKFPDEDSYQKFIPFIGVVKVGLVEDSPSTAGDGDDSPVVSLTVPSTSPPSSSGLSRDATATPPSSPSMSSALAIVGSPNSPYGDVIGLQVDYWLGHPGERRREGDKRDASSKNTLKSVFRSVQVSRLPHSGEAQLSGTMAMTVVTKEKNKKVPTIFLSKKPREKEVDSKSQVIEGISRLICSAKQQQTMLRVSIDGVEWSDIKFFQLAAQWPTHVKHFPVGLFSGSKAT
UniProt Q9P0S3: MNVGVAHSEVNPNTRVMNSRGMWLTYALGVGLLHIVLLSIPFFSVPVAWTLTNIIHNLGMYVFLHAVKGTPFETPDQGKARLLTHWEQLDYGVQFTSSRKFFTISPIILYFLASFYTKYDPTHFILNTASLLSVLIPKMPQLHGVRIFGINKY
UniProt Q9BW27: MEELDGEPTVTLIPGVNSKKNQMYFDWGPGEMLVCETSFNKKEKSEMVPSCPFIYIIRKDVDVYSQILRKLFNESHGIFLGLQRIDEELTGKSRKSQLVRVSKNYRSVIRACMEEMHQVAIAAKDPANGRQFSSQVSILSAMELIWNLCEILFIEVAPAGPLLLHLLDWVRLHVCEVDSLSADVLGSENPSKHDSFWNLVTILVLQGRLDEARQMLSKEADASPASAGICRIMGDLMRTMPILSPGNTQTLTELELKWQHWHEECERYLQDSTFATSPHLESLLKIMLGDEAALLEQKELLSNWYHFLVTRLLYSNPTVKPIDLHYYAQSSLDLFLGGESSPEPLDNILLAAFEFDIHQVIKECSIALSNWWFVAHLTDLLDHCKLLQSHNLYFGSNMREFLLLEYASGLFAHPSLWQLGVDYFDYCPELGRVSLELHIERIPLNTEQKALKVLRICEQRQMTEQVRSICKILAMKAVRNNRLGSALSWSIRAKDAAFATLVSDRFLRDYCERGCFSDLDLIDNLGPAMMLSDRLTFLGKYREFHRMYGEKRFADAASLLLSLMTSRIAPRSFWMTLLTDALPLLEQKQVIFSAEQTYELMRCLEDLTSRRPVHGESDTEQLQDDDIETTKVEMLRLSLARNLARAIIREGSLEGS

[1] = compound: C/C(=N\NC(=O)C1=CC(=CC=C1)S(=O)(=O)N2CCOCC2)/C3=C(C=CC(=C3)Cl)O
Procedure, shortened: as §1

[2] = compound: C1=CC(=CC=C1C2=NC3=C(N2)C=C(C=C3)C(=O)N)OC4=CC=C(C=C4)Cl
Procedure, shortened: as §1

[3] = compound: C1=CC2=C(C=CC(=C2)/C=C\3/C(=O)NC(=NCC4=CC=CS4)S3)N=C1
Procedure, shortened: as §1

[4] = compound: C1=CC2=NC=CN=C2C=C1/C=C/3\C(=O)NC(=O)S3
Procedure, shortened: as §1

[5] = compound: C1=CC=C(C=C1)C2=NC(=C(N2)C3=CC=NC=C3)C4=CC(=C(C=C4)Cl)O
Procedure, shortened: as §1

[6] = compound: C1=CC=C2C(=C1)C3=NNC4=CC=CC(=C43)C2=O
Procedure, shortened: as §1

[7] = compound: C1CCN(C1)C(=O)NC2=CC=CC(=C2)NC3=NC=C(C(=N3)NCCC4=CN=CN4)Br
Procedure, shortened: as §1

[8] = compound: C1CN(CCC1(CC2=CC=C(C=C2)Cl)N)C3=NC=NC4=C3C=CN4
Procedure, shortened: as §1

IRAK-1-4 Inhibitor I = compound: C1COCCN1CCN2C3=CC=CC=C3N=C2NC(=O)C4=CC(=CC=C4)[N+](=O)[O-] [IRAK-1-4 Inhibitor I]
Procedure, shortened: as §1

Measured: log2 fold change

PAIP2 (UniProt Q9BPZ3)
inactive: erlotinib 0.044 | [1] 0.041 | [2] -0.016 | [3] -0.01 | [4] 0.004 | [5] -0.054 | [6] -0.053 | [7] -0.044 | [8] 0.022 | IRAK-1-4 Inhibitor I 0.017

PAGR1 (UniProt Q9BTK6)
inactive: erlotinib -0.257 | [1] -0.002 | [2] 0.029 | [3] -0.043 | [4] 0.024 | [5] -0.082 | [6] 0.005 | [7] 0.041 | [8] -0.01 | IRAK-1-4 Inhibitor I 0.173

OGFR (UniProt Q9NZT2)
inactive: erlotinib 0.023 | [1] 0.023 | [2] 0.018 | [3] -0.015 | [4] -0.012 | [5] -0.011 | [6] -0.027 | [7] -0.01 | [8] 0.038 | IRAK-1-4 Inhibitor I -0.012

OTUD5 isoform 5 (UniProt Q96G74)
inactive: erlotinib 0.009 | [1] -0.069 | [2] 0.034 | [3] 0.052 | [4] 0.012 | [5] 0.042 | [6] -0.001 | [7] -0.011 | [8] -0.001 | IRAK-1-4 Inhibitor I 0.033

OAT (UniProt P04181)
inactive: erlotinib -0.006 | [1] -0.074 | [2] -0.04 | [3] 0.023 | [4] 0.007 | [5] -0.017 | [6] -0.038 | [7] -0.033 | [8] 0.008 | IRAK-1-4 Inhibitor I 0.018

OSBP2 (UniProt Q969R2)
inactive: erlotinib -0.019 | [1] -0.254 | [2] 0.08 | [3] 0.032 | [4] -0.039 | [5] -0.077 | [6] -0.075 | [7] 0.037 | [8] -0.01 | IRAK-1-4 Inhibitor I -0.061

PACSIN1 (UniProt Q9BY11)
inactive: erlotinib -0.042 | [1] -0.055 | [2] -0.019 | [3] 0.019 | [4] 0.032 | [5] -0.118 | [6] 0.044 | [7] -0.027 | [8] -0.019 | IRAK-1-4 Inhibitor I 0.041

OXR1 (UniProt Q8N573)
inactive: erlotinib -0.025 | [1] 0.048 | [2] 0.019 | [3] 0 | [4] -0.029 | [5] -0.018 | [6] 0.057 | [7] -0.084 | [8] -0.009 | IRAK-1-4 Inhibitor I -0.001

PALM (UniProt O75781)
inactive: erlotinib -0.001 | [1] -0.017 | [2] -0.003 | [3] -0.004 | [4] -0.066 | [6] -0.035 | [7] -0.027 | [8] -0.001

Quoted from the results shown (two entries):
OSBP2 (UniProt Q969R2)
inactive: erlotinib -0.019 | [1] -0.254 | [2] 0.08 | [3] 0.032 | [4] -0.039 | [5] -0.077 | [6] -0.075 | [7] 0.037 | [8] -0.01 | IRAK-1-4 Inhibitor I -0.061

PACSIN1 (UniProt Q9BY11)
inactive: erlotinib -0.042 | [1] -0.055 | [2] -0.019 | [3] 0.019 | [4] 0.032 | [5] -0.118 | [6] 0.044 | [7] -0.027 | [8] -0.019 | IRAK-1-4 Inhibitor I 0.041

The list continues.

NUP62 (UniProt P37198)
inactive: erlotinib 0.014 | [1] -0.013 | [2] 0 | [3] -0.015 | [4] -0.048 | [5] -0.026 | [6] 0.006 | [7] 0.005 | [8] -0.004 | IRAK-1-4 Inhibitor I 0.03

NXF2 (UniProt Q9GZY0)
inactive: erlotinib 0 | [2] -0.073

OGFOD2 (UniProt Q6N063)
inactive: erlotinib 0.034 | [1] -0.151 | [2] -0.093 | [3] -0.074 | [4] 0.022 | [5] -0.034 | [6] 0.001 | [7] 0.003 | [8] 0.006 | IRAK-1-4 Inhibitor I -0.04

PANX1 (UniProt Q96RD7)
inactive: erlotinib -0.041 | [1] 0.027 | [2] 0.024 | [3] 0.01 | [4] -0.011 | [5] -0.004 | [6] -0.011 | [7] -0.018 | [8] -0.005 | IRAK-1-4 Inhibitor I 0.03

PAPOLA (UniProt P51003)
inactive: erlotinib -0.004 | [1] -0.028 | [2] 0.016 | [3] -0.004 | [4] 0.006 | [5] 0.01 | [6] 0 | [7] -0.003 | [8] 0.019 | IRAK-1-4 Inhibitor I -0.018

PALMD (UniProt Q9NP74)
inactive: erlotinib -0.055 | [1] -0.006 | [2] -0.026 | [3] 0.07 | [4] 0.042 | [5] -0.057 | [6] 0.019 | [7] 0.009 | [8] -0.019 | IRAK-1-4 Inhibitor I -0.012

OXSR1 (UniProt O95747)
inactive: erlotinib 0.014 | [1] 0.055 | [2] -0.005 | [3] 0.016 | [4] 0.01 | [5] -0.016 | [6] -0.054 | [7] -0.017 | [8] 0.034 | IRAK-1-4 Inhibitor I 0

PAFAH1B1 (UniProt P43034)
inactive: erlotinib -0.046 | [1] -0.116 | [2] -0.009 | [3] 0.009 | [4] 0.007 | [5] 0.011 | [6] 0.062 | [7] 0.007 | [8] -0.011 | IRAK-1-4 Inhibitor I -0.03

PAPOLG (UniProt Q9BWT3)
inactive: erlotinib 0 | [1] -0.068 | [2] -0.092 | [3] 0.035 | [5] 0.055 | [6] 0.041 | [7] -0.086 | [8] 0.104 | IRAK-1-4 Inhibitor I 0.136

NUP58 (UniProt Q9BVL2)
inactive: erlotinib -0.006 | [1] -0.006 | [2] 0.004 | [3] -0.009 | [4] -0.028 | [5] -0.026 | [6] -0.046 | [7] 0.008 | [8] 0.02 | IRAK-1-4 Inhibitor I 0.034

OGA (UniProt O60502)
inactive: erlotinib 0 | [1] -0.011 | [2] 0.007 | [3] -0.023 | [4] -0.001 | [5] -0.019 | [6] 0.019 | [7] 0.009 | [8] 0.012 | IRAK-1-4 Inhibitor I -0.01

PABPC1 (UniProt P11940)
inactive: erlotinib -0.002 | [1] 0.016 | [2] 0.006 | [3] 0.034 | [4] -0.011 | [5] 0.004 | [6] 0.048 | [7] 0.009 | [8] -0.059 | IRAK-1-4 Inhibitor I -0.011

PACS1 (UniProt Q6VY07)
inactive: erlotinib 0.017 | [1] 0.006 | [2] 0.022 | [3] -0.006 | [4] -0.002 | [5] -0.027 | [6] -0.029 | [7] 0.009 | [8] -0.003 | IRAK-1-4 Inhibitor I -0.006

OARD1 (UniProt Q9Y530)
inactive: erlotinib 0.002 | [1] -0.1 | [2] 0.008 | [3] 0.028 | [4] -0.019 | [5] -0.015 | [6] -0.031 | [7] -0.036 | [8] 0.041 | IRAK-1-4 Inhibitor I -0.01

ODR4 (UniProt Q5SWX8)
inactive: erlotinib -0.08 | [1] 0 | [2] 0.009 | [3] -0.01 | [4] -0.02 | [5] -0.041 | [6] 0 | [7] -0.022 | [8] -0.074 | IRAK-1-4 Inhibitor I 0.045

ORMDL1 (UniProt Q9P0S3)
inactive: erlotinib 0.166 | [1] 0.275 | [2] -0.078 | [3] -0.098 | [4] -0.175 | [5] -0.094 | [6] -0.038 | IRAK-1-4 Inhibitor I -0.097

OSBPL11 (UniProt Q9BXB4)
inactive: erlotinib -0.001 | [1] 0.005 | [2] -0.019 | [3] -0.119 | [4] 0.026 | [5] -0.05 | [6] -0.062 | [7] -0.02 | [8] 0.077 | IRAK-1-4 Inhibitor I 0.004

PARG (UniProt Q86W56)
inactive: erlotinib 0.009 | [1] -0.013 | [2] -0.062 | [3] 0.008 | [4] -0.011 | [5] 0.004 | [6] -0.013 | [7] 0.003 | [8] -0.011 | IRAK-1-4 Inhibitor I 0.048

P3H3 (UniProt Q8IVL6)
inactive: erlotinib -0.209 | [1] 0.035 | [2] 0.006 | [3] 0.165 | [6] -0.141

PAFAH1B3 (UniProt Q15102)
inactive: erlotinib 0.037 | [1] 0.032 | [2] -0.017 | [3] -0.017 | [4] 0.022 | [5] -0.009 | [6] 0.005 | [7] 0.025 | [8] 0.027 | IRAK-1-4 Inhibitor I 0.005

NUP210 (UniProt Q8TEM1)
inactive: erlotinib -0.018 | [1] -0.019 | [2] -0.049 | [3] 0.036 | [4] -0.004 | [5] -0.046 | [6] -0.157 | [7] -0.008 | [8] -0.001 | IRAK-1-4 Inhibitor I -0.009

NUP85 (UniProt Q9BW27)
inactive: erlotinib 0.015 | [1] -0.007 | [2] -0.06 | [3] -0.07 | [4] 0.003 | [5] 0.016 | [6] 0.013 | [7] 0.038 | [8] -0.005 | IRAK-1-4 Inhibitor I 0.022

Reference: the supplement of paper PMC10849652
